This note sets out measurements from article PMC13299607.

Protein sequences, listed by entry. Tags and fused reporters are not part of them.
UniProt Q96KS0: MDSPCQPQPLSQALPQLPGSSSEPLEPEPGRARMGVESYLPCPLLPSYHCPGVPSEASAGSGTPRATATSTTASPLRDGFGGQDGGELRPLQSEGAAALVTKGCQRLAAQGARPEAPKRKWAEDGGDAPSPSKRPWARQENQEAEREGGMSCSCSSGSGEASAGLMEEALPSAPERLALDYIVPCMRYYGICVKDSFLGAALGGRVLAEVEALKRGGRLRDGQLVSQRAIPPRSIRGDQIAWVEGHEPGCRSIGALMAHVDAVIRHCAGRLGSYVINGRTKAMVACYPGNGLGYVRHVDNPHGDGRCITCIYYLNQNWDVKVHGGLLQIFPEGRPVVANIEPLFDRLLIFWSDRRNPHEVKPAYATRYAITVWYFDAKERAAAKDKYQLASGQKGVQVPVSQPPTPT

No constants are given. Whether binding was seen depends on the method and setting. In cells and extracts the contact can be indirect. Some results given as binding are weak or reduced against the parent protein; the word gives no strength.

The target in the experiment is EGFP-PHD1 (UniProt Q96KS0). As to the kind of experiment: co-IP; GFP-Trap magnetic agarose beads on lysate of asynchronous HeLa cells 48 hr after transfection with EGFP-PHD1; lysis in 50 mM Tris pH 7.5, 150 mM NaCl, 1% NP40, 0.5% deoxycholate, 0.1% SDS; 2 hr at 4°C; western blot.

B1: endogenous RepoMan (CDCA2) (protein, UniProt Q69YH5 1-1023)
chain: MDANSKDKPPETKESAMNNAGNASFILGTGKIVTPQKHAELPPNPCTPDTFKSPLNFSTVTVEQLGITPESFVRNSAGKSSSYLKKCRRRSAVGARGSPETNHLIRFIARQQNIKNARKSPLAQDSPSQGSPALYRNVNTLRERISAFQSAFHSIKENEKMTGCLEFSEAGKESEMTDLTRKEGLSACQQSGFPAVLSSKRRRISYQRDSDENLTDAEGKVIGLQIFNIDTDRACAVETSVDLSEISSKLGSTQSGFLVEESLPLSELTETSNALKVADCVVGKGSSDAVSPDTFTAEVSSDAVPDVRSPATPACRRDLPTPKTFVLRSVLKKPSVKMCLESLQEHCNNLYDDDGTHPSLISNLPNCCKEKEAEDEENFEAPAFLNMRKRKRVTFGEDLSPEVFDESLPANTPLRKGGTPVCKKDFSGLSSLLLEQSPVPEPLPQPDFDDKGENLENIEPLQVSFAVLSSPNKSSISETLSGTDTFSSSNNHEKISSPKVGRITRTSNRRNQLVSVVEESVCNLLNTEVQPCKEKKINRRKSQETKCTKRALPKKSQVLKSCRKKKGKGKKSVQKSLYGERDIASKKPLLSPIPELPEVPEMTPSIPSIRRLGSGYFSSNGKLEEVKTPKNPVKRKDLLRHDPDLHMHQGYDKYDVSEFCSYIKSSSSLGNATSDEDPNTNIMNINENKNIPKAKNKSESENEPKAGTDSPVSCASVTEERVASDSPKPALTLQQGQEFSAGGQNAENLCQFFKISPDLNIKCERKDDFLGAAEGKLQCNRLMPNSQKDCHCLGDVLIENTKESKSQSEDLGRKPMESSSVVSCRDRKDRRRSMCYSDGRSLHLEKNGNHTPSSSVGSSVEISLENSELFKDLSDAIEQTFQRRNSETKVRRSTRLQKDLENEGLVWISLPLPSTSQKAKRRTICTFDSSGFESMSPIKETVSSRQKPQMAPPVSDPENSQGPAAGSSDEPGKRRKSFCISTLANTKATSQFKGYRRRSSLNGKGESSLTALERIEHNGERKQ
In the case of B1, the binding entry is “binds”.
